Reference: US7273694B2, “Method and apparatus for reducing pathogens in a biological sample” (Safety Art, LLC, priority 2001, dated 2007)
For at least one compound, name, drawing or mass did not settle the structure.

Test system: Brucella abortus Strain 19
Format: cell-based
Settings: Strain 19 [vaccine strain]

Structure (SMILES): NC[C@H]1O[C@H](O[C@H]2[C@H](O)[C@@H](O[C@H]3O[C@H](CO)[C@@H](O)[C@H](N)[C@H]3O)[C@H](N)C[C@@H]2N)[C@H](O)[C@@H](O)[C@@H]1O [kanamycin]
- sensitivity of B. abortus to antibiotic: sensitive
